The whole screen tested about 350,000 compounds, of which about 220 (0.063%) were called active. The shares of active, inactive and inconclusive entries below differ from those in the screen. Calls follow the shape of the dose curve; as a rule, active = well fitted activation curve with a large enough effect; inconclusive = small, poorly fitted or top-dose-only effect; inactive = no such curve, though single readings can be large or run the other way. Potencies beside an inconclusive call are fits to weak or partial responses and may not hold up.
experiment: qHTS for Activators of Integrin-Mediated Alleviation for Muscular Dystrophy; conditions: alpha7betagal myoblasts, beta-gal FDG fluorescence, 48 h; activation: at 38.3 µM (top of the series); also: nearly all actives have a fitted effect of over 60% in size;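 as to activation: 100% = response of the positive control SU9516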
In short: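 Alpha7betagal+/- myoblasts (passage 13) were plated 16-24 hr, then exposed to compounds (1:260 dilution of DMSO stock) for 48 hours at 37C. After MPER lysis, β-galactosidase reporter activity was read as FDG fluorescence (ex 480/em 540) after 30 minutes.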
Potency is read from the fitted curve at half-maximal effect.

| Structure (SMILES) | Potency | activation |
| --- | --- | --- |
| CCOc1cc(-c2nc3ccccn3c2NCC2CCCO2)ccc1O (stereo unspecified) | inactive |  |
| COc1cccc(NC(=O)CN2C(=O)NC3(CCCCCC3)C2=O)c1 | inconclusive: 5.01 µM [activator, single point] |  |
| O=C(Nc1ccc2c(c1)OCCO2)C1CC(O)CN1C(=O)Nc1ccccc1 (stereo unspecified) | inconclusive: 10 µM [activator, single point] |  |
| COc1cc(-c2nc(-c3cccc(C)c3)no2)cc(OC)c1OC | inconclusive: 7.94 µM [activator, partial curve, poor fit] |  |
| O=C(Nc1ccc(Cl)cc1)Nc1cc(S(=O)(=O)N2CCOCC2)ccc1N1CCCC1 | inconclusive: 5.01 µM [activator, single point] |  |
| C=COCCNC(=O)Nc1ccc(Cl)c(Cl)c1 | inconclusive: 11.2 µM [activator, single point] |  |
| Cn1cc(C(c2ccccc2OCC(=O)O)c2cn(C)c3ccccc23)c2ccccc21 | inactive |  |
| O=C(NC1(C(F)(F)F)NC(=O)N(Cc2cccnc2)C1=O)c1ccccc1Cl (stereo unspecified) | inconclusive: 12.6 µM [activator, single point] |  |
| Cc1c(CCOC(=O)c2ccc(Cl)cc2Cl)sc[n+]1CC(=O)c1ccc(Br)cc1 | inactive |  |
| Cc1c(CCOC(=O)CC23CC4CC(CC(C)(C4)C2)C3)sc[n+]1CC(=O)c1ccccc1 | inconclusive: 10 µM [activator, partial curve, poor fit] |  |
| COc1cc2c(cc1OC)CN(C(=O)c1ccccc1C(=O)O)CC2 | inconclusive: 5.01 µM [activator, single point] |  |
| CCOc1ccc(N2C(=O)CC(NNc3nc4ccccc4s3)C2=O)cc1 (stereo unspecified) | inconclusive: 5.62 µM [activator, partial curve, poor fit] |  |
| S=c1[nH]nc(SCc2ccccc2)c2[nH]cnc12 | inconclusive: 2.51 µM [activator, single point] |  |
| C=CCn1nnnc1-c1cccc(Cl)c1 | inconclusive: 3.16 µM [activator, single point] |  |
| COc1ccc(-c2nnc(SCC(=O)NCC3CCCO3)o2)cc1 (stereo unspecified) | inconclusive: 5.01 µM [activator, single point] |  |
| Cc1ccc(S(=O)(=O)c2ccc(Cl)cc2)cc1S(=O)(=O)N1CCOCC1 | inconclusive: 3.16 µM [activator, single point] |  |
| Nc1nonc1-n1nnc(C(=O)N/N=C/c2ccc(Br)cc2)c1-c1ccc2c(c1)OCO2 | inconclusive: 28.2 µM [activator, single point] |  |
| Cc1ccc2oc(C(=O)N3CCN(Cc4nccn4C)CC3)c(C)c2c1 | inconclusive: 5.01 µM [activator, partial curve, poor fit] |  |
| Nc1ncc([N+](=O)[O-])cc1Br | inconclusive: 2 µM [activator, partial curve, poor fit] |  |
| COc1cc2ccccc2cc1C(=O)Nc1nnc(-c2ccncc2)o1 | inactive |  |
| CC(C)c1ccc(C2CC(=O)c3cnc(NC(=O)c4ccco4)nc3C2)cc1 (stereo unspecified) | inactive |  |
| COc1ccc(OC)c(NC(=O)NCCN2CCN(c3ccccc3)CC2)c1 | inconclusive: 1.58 µM [activator, partial curve, poor fit] |  |
| C=CCNC(=O)CCc1nnc(C2(c3ccc(Cl)cc3)CCC2)o1 | inconclusive: 0.355 µM [activator, full curve, poor fit] |  |
| COc1cccc(NC(=O)CCC2CCN(C(=O)C(OC)c3ccccc3)CC2)c1 (stereo unspecified) | inactive |  |

Of the compounds above, these contain an aryl thioether with sulfur outside any ring.

| Structure (SMILES) | Potency | activation |
| --- | --- | --- |
| S=c1[nH]nc(SCc2ccccc2)c2[nH]cnc12 | inconclusive: 2.51 µM [activator, single point] |  |
| COc1ccc(-c2nnc(SCC(=O)NCC3CCCO3)o2)cc1 (stereo unspecified) | inconclusive: 5.01 µM [activator, single point] |  |

(listing goes on)

| Structure (SMILES) | Potency | activation |
| --- | --- | --- |
| Cc1cc(C)nc(N2CCCC(C(=O)NC3CCCC3)C2)n1 (stereo unspecified) | inactive |  |
| Cc1oc(-c2ccc(Cl)cc2)nc1CN1CCC(C(=O)NCc2cccs2)CC1 | inactive |  |
| O=c1cc(-c2ccccc2)[nH]n1-c1ccccc1 | inconclusive: 1.58 µM [activator, partial curve, poor fit] |  |
| CCN1N=C(C)C=C(c2ccccc2)n2c1nc1ccccc12 | inconclusive: 5.01 µM [activator, single point] |  |
| CCC1Oc2ccc(C)cc2N(CC(=O)NCc2cc(OC)ccc2OC)C1=O (stereo unspecified) | inactive |  |
| O=C(CCSCCC(=O)NN=Cc1ccccc1O)NN=Cc1ccccc1O | inactive |  |
| O=C(CCN1CCN(c2ccccc2F)CC1)Nc1ccccc1F | inactive |  |
| C=CCc1c(C)nc2cc(-c3ccc(C)cc3)[nH]n2c1=O | inconclusive: 14.1 µM [activator, single point] |  |
| Cc1ccc(N(C)S(=O)(=O)c2ccc3[nH]cc(C(=O)NCCCN4CCOCC4)c(=O)c3c2)cc1C | inactive |  |
| Clc1ccc2nc(-c3ccc(Br)s3)cn2c1 | inconclusive: 11.2 µM [activator, single point] |  |
| O=C(O)C1CCCCC1C(=O)Nc1nc(-c2ccc(Cl)s2)cs1 (stereo unspecified) | inconclusive: 5.01 µM [activator, single point] |  |
| CC(=O)Nc1ccc(S(=O)(=O)N(Cc2cccnc2)Cc2cc3ccccc3[nH]c2=O)cc1 | inconclusive: 6.31 µM [activator, partial curve, poor fit] |  |
| COc1cccc2c1C(=O)c1c(O)c3c(c(O)c1C2=O)CC(O)(C(=O)CO)CC3OC1CC(N(C)C)C(O)C(C)O1 (stereo unspecified) |  | inconclusive: -54.8% [activator] |
| Nc1nnc(SCC(=O)Nc2ccc3c(c2)OCCO3)s1 | inconclusive: 2.82 µM [activator, single point] |  |
| C/C(=N\O)c1ccc2c(c1)CC(C)O2 (stereo unspecified) | inconclusive: 10 µM [activator, single point] |  |
| CCC(C)C(NC(=O)C1CCC(C)CC1)C(=O)NCc1ccco1 (stereo unspecified) | inconclusive: 11.2 µM [activator, single point] |  |
| COC(=O)/N=C/c1c(NCc2ccccc2)nc2c(C)cccn2c1=O | inconclusive: 11.2 µM [activator, partial curve, poor fit] |  |
| N#Cc1ccccc1COC(=O)c1ccc(Br)o1 | inconclusive: 3.16 µM [activator, single point] |  |
| COCCn1c(C)cc(/C=C2/SC(=O)N(C(C)C(=O)OC)C2=O)c1C (stereo unspecified) | inactive |  |
| CC1CN(/C=C/C(=O)C(F)(F)F)CC(C)O1 (stereo unspecified) | inconclusive: 1 µM [activator, full curve, poor fit] |  |
| CC(C)S(=O)(=O)C1=NSC2=NC(=O)/C(=C\c3ccc(-c4cccc(C(=O)O)c4)o3)C(=N)N21 | inconclusive: 28.2 µM [activator, single point] |  |
| CC(C)(C)C1=Nn2c(nnc2-c2n[nH]c3c2CCC3)SC1 | inconclusive: 10 µM [activator, partial curve, poor fit] |  |
| Cc1ccc(-c2cccc(C(=O)NCCc3ccccc3)n2)c2ccccc12 | inactive |  |
| CCOc1ccc(-c2c(C(=O)N/N=C/c3ccc(C)o3)nnn2-c2nonc2N)cc1 | inconclusive: 2.24 µM [activator, partial curve, poor fit] |  |

| Structure (SMILES) | Potency | activation |
| --- | --- | --- |
| CC(=O)N/C(=C\c1ccccc1)C(=O)Nc1ccccc1C | inconclusive: 22.4 µM [activator, single point] |  |
| CC(=O)C1=C(O)C(=O)N(c2ccc(C)cc2)C1c1ccc([N+](=O)[O-])cc1 (stereo unspecified) | inconclusive: 28.2 µM [activator, single point] |  |
| Cn1c(N)c(C(C[N+](=O)[O-])c2c(F)cccc2Cl)c(=O)n(C)c1=O (stereo unspecified) | inactive |  |
| COc1cccc(NC(=S)N(CCCN2CCC(C)CC2)Cc2cccs2)c1 | inactive |  |
| CC(=O)/C(=C/N(C)C)C(=O)Nc1ccc(Cl)cc1Cl | inconclusive: 17.8 µM [activator, partial curve, poor fit] |  |
| C=CCOc1c(Cl)cc(CNc2nccs2)cc1OC | inactive |  |
| NC(=S)NN=Cc1c[nH]c2nccnc12 | inactive |  |
| CC/C(=C\c1oc2cc3ccccc3cc2[n+]1CC)Nc1ccccc1 | inactive |  |
| Cn1c(=O)c2ccccc2n(CC(=O)NC2CCCCC2)c1=O | inactive |  |
| NC(=O)C1CCCN(C(=O)c2ccc3nc(Cc4cccc(Cl)c4)oc3c2)C1 (stereo unspecified) | inconclusive: 5.01 µM [activator, single point] |  |
| Cc1nnc(-c2ccc(N3CCOCC3)c([N+](=O)[O-])c2)o1 | inconclusive: 14.1 µM [activator, partial curve] |  |
| CCCCNC(=S)NNC(=O)c1c(C)nc2ccccn12 | inactive |  |
| Cc1ccc2[nH]c(=O)c3cc(C(=O)N4CCN(C(=O)c5ccco5)CC4)sc3c2c1 | inactive |  |
| COc1ccc(CNC(=O)COC(=O)CN2C(=O)C3CC=CCC3C2=O)cc1 (stereo unspecified) | inconclusive: 28.2 µM [activator, single point] |  |
| O=C1C2CCCN2C(=O)N1CCCCN1CCN(c2ccccc2)CC1 (stereo unspecified) | inactive |  |
| C=CCn1c(SCc2cc(=O)n3ccsc3n2)nc2ccccc2c1=O | inconclusive: 31.6 µM [activator, partial curve, poor fit] |  |
| O=C(COC(=O)/C=C/c1ccccc1)NCc1ccc(Cl)cc1 | inactive |  |
| Cc1oc2c(CN3CCCC3)c(O)ccc2c(=O)c1-c1ccc(Br)cc1 | inconclusive: 22.4 µM [activator, single point] |  |
| CC(C)N(Cc1nccn1C)C(=O)CCc1nnc(CCCc2ccccc2)o1 | inactive |  |
| COc1ccccc1S(=O)(=O)NCc1ccc(C(=O)NC2CCC(O)CC2)cc1 (stereo unspecified) | inactive |  |
| Cc1ccc(C(=O)Nc2nc(=O)[nH]s2)cc1 | inconclusive: 2.82 µM [activator, single point] |  |
| Nc1c(N(CCC2=CCCCC2)C(=O)CCCOc2ccccc2)c(=O)[nH]c(=O)n1Cc1ccccc1 | inactive |  |
| O=C(CC(C(=O)O)c1cccc(Br)c1)c1ccc(Cl)cc1 (stereo unspecified) | inconclusive: 3.98 µM [activator, single point] |  |

From PubChem BioAssay AID624291 (National Center for Advancing Translational Sciences (NCATS), 2012)
